Patent publication US20180094062A1 (Hoffmann-La Roche, published 2018)
Results are given in words; binding and its absence hold for the method and conditions named. Some binding calls cover weakened binding; strength is not graded here.

Amino acid sequences for entries named in this document (tags omitted). A change or cut given only in a name is not applied to a line headed by its entry.
UniProt P21860: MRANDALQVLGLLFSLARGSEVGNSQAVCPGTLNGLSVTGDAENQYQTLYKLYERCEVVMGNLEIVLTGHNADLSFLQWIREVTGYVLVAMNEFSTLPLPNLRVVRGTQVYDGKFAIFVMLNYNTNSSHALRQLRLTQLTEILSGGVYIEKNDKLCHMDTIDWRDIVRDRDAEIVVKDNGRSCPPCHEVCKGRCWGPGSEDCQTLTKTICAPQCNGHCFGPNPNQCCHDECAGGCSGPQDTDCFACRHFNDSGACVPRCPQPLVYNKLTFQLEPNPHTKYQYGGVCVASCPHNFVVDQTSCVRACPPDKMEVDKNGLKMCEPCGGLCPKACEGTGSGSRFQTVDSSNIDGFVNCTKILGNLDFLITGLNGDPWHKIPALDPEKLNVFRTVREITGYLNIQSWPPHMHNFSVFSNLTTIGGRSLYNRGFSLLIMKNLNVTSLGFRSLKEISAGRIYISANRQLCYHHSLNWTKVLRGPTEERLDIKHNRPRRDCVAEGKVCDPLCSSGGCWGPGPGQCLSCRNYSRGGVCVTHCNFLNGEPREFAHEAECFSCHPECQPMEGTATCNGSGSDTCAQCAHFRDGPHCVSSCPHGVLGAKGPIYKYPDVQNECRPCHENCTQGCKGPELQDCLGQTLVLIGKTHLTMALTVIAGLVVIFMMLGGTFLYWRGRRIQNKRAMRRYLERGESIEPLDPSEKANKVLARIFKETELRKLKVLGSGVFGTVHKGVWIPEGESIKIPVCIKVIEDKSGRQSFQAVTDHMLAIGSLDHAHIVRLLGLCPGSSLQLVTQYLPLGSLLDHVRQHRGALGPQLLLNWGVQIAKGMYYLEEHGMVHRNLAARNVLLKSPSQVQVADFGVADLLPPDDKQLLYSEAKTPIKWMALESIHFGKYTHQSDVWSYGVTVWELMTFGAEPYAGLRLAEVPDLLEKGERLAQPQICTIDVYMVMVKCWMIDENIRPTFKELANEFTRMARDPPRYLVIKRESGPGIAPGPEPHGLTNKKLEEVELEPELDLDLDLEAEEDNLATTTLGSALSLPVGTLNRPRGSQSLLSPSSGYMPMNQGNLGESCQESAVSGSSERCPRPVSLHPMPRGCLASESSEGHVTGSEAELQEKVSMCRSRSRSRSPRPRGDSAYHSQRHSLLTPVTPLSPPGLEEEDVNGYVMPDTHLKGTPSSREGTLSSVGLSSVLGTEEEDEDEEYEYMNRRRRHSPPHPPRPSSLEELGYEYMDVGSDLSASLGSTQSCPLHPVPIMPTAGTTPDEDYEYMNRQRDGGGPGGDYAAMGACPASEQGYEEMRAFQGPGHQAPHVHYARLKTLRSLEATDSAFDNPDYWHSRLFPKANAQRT

T1: recombinant Thermus thermophilus SlyD FKBP-Her3 (TtSlyD-FKBP-Her3)
T1 sequence: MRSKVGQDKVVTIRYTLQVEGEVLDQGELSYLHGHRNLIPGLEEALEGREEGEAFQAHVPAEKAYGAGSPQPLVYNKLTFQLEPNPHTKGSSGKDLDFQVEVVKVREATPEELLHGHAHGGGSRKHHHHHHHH

T2: HER3 ECD peptide hairpin (β-hairpin of HER3), overlapping immobilized 15-mer peptides (human)
T2 sequence (peptide): PQPLVYNKLTFQLEPNPHT

T3: HER4 ECD peptide hairpin (β-hairpin of HER4), overlapping immobilized 15-mer peptides (human)
T3 sequence (peptide): PQTFVYNPTTFQLEHNFNA


How the values were obtained:
[1] = target: T4, SBP-tagged HER3-ECD (human, UniProt P21860 20-643); test: plate assay: SBP-tagged HER3-ECD on streptavidin plate, antibody titrated, 10 nM Europium-labeled Heregulin-beta detected by time-resolved fluorescence; the antibody raises the Heregulin signal
T4 construct: not shown: SBP tag

[2] = target: human HER3, full length, on cells (T47D, MCF7, transfected HEK293) (human) (UniProt P21860); test: IHC on fixed transfected HEK293 cells
[3] = target: HER3 ECD-HRG complex (Heregulin-activated Her-3 ECD) (human) (UniProt P21860); test: Interaction Map (TraceDrawer) calculated from SPR data of captured antibody with HER-3-ECD-HRG at 25 °C
[4] = target: human recombinant HER3 Extracellular Domain (HER3 ECD) (human) (UniProt P21860); test: SPR Biacore 3000 two-state analysis, Her-3 ECD at 1 µM, 25 C
[5] = target: human recombinant HER3 Extracellular Domain (HER3 ECD) (human) (UniProt P21860); test: SPR Biacore 4000 kinetic screening
[6] = target: T1, recombinant Thermus thermophilus SlyD FKBP-Her3 (TtSlyD-FKBP-Her3); test: SPR Biacore 4000 kinetic screening
[7] = target: human HER3, full length, on cells (T47D, MCF7, transfected HEK293) (human) (UniProt P21860); test: IHC on formalin-fixed, paraffin-embedded HEK293 cells transiently transfected with full length HER3; NC = untransfected cells; antibody at 1 µg/ml
[8] = target: HER3 ECD-HRG complex (Heregulin-activated Her-3 ECD) (human) (UniProt P21860); test: SPR, antibody captured
[9] = target: human recombinant HER3 Extracellular Domain (HER3 ECD) (human) (UniProt P21860); test: SPR, antibody captured
[10] = target: T1, recombinant Thermus thermophilus SlyD FKBP-Her3 (TtSlyD-FKBP-Her3); test: SPR, antibody captured
[11] = target: human recombinant HER3 Extracellular Domain (HER3 ECD) (human) (UniProt P21860); test: SPR two-state analysis
[12] = target: HER3 ECD-HRG complex (Heregulin-activated Her-3 ECD) (human) (UniProt P21860); test: SPR Biacore T200, antibody captured, 25 C
[13] = target: human recombinant HER3 Extracellular Domain (HER3 ECD) (human) (UniProt P21860); test: SPR Biacore T200, antibody captured, 25 C
[14] = target: human recombinant HER3 Extracellular Domain (HER3 ECD) (human) (UniProt P21860); test: SPR (Biacore) overlay, 100 nM Her-3 ECD without Heregulin on M-08-11
[15] = target: HER3 ECD-HRG complex (Heregulin-activated Her-3 ECD) (human) (UniProt P21860); test: SPR
[16] = target: human HER3, full length, on cells (T47D, MCF7, transfected HEK293) (human) (UniProt P21860); test: FACS on T47D cells
[17] = target: HER3 ECD-HRG complex (Heregulin-activated Her-3 ECD) (human) (UniProt P21860); test: SPR (Biacore) overlay, 90 nM Heregulin*Her-3 ECD complex on M-08-11
[18] = target: HER3 ECD-HRG complex (Heregulin-activated Her-3 ECD) (human) (UniProt P21860); test: SPR (Biacore) overlay, 100 nM Heregulin/Her-3 ECD complex on M-08-11
[19] = target: human recombinant HER3 Extracellular Domain (HER3 ECD) (human) (UniProt P21860); test: SPR (Biacore 3000, 25 °C), M-08-11 captured from hybridoma supernatant, Her-3 ECD injected at 1 µM for rising injection times, curves normalised
[20] = target: human recombinant HER3 Extracellular Domain (HER3 ECD) (human) (UniProt P21860); test: SPR, antibody captured, 25 C
[21] = target: T1, recombinant Thermus thermophilus SlyD FKBP-Her3 (TtSlyD-FKBP-Her3); test: SPR, antibody captured, 25 C
[22] = target: human recombinant HER3 Extracellular Domain (HER3 ECD) (human) (UniProt P21860); test: ELISA, antigen coated, hybridoma supernatant
[23] = target: T2, HER3 ECD peptide hairpin (β-hairpin of HER3), overlapping immobilized 15-mer peptides (human); test: CelluSpots array of overlapping 15-mer peptides of the HER family hairpins, antibody at 1 µg/mL, chemiluminescence (paragraph 389 to paragraph 391)
[24] = target: human HER3, full length, on cells (T47D, MCF7, transfected HEK293) (human) (UniProt P21860); test: FACS on T47D cells treated with the Heregulin fragment (HRG); 1 µg M-08-11, 0 to 240 min at 37 °C, PE goat anti-mouse IgG
[25] = target: HER3 ECD-HRG complex (Heregulin-activated Her-3 ECD) (human) (UniProt P21860); test: SPR (Biacore 3000, 25 °C), M-08-11 captured from hybridoma supernatant, (5:1) Heregulin/Her3-ECD complex injected at 100 nM for 30, 90, 180 and 300 s, curves normalised
[26] = target: HER3 ECD-HRG complex (Heregulin-activated Her-3 ECD) (human) (UniProt P21860); test: SPR functional assays
[27] = target: human HER3, full length, on cells (T47D, MCF7, transfected HEK293) (human) (UniProt P21860); test: IHC on fixed transfected HEK293 cells, 1 µg/ml
[28] = target: human HER3, full length, on cells (T47D, MCF7, transfected HEK293) (human) (UniProt P21860); test: FACS on T47D cells without Heregulin; 1 µg M-08-11, 0 to 240 min at 37 °C, PE goat anti-mouse IgG
[29] = target: human HER3, full length, on cells (T47D, MCF7, transfected HEK293) (human) (UniProt P21860); test: IHC on formalin-fixed, paraffin-embedded HEK293 cells transiently transfected with full length HER3; antibody at 1 µg/ml
[30] = target: HER3 ECD-HRG complex (Heregulin-activated Her-3 ECD) (human) (UniProt P21860); test: SPR sensorgram overlay, 100 nM
[31] = target: T2, HER3 ECD peptide hairpin (β-hairpin of HER3), overlapping immobilized 15-mer peptides (human); test: CelluSpots array of overlapping 15-mer peptides
[32] = target: human recombinant HER3 Extracellular Domain (HER3 ECD) (human) (UniProt P21860); test: SPR epitope binning, M-05-74 captured, Her-3 ECD 1.5 µM, 37 C
[33] = target: human recombinant HER3 Extracellular Domain (HER3 ECD) (human) (UniProt P21860); test: SPR (Biacore) overlay, 100 nM Her-3 ECD without Heregulin on M-05-74
[34] = target: HER3 ECD-HRG complex (Heregulin-activated Her-3 ECD) (human) (UniProt P21860); test: SPR (Biacore) overlay, 90 nM Heregulin*Her-3 ECD complex on M-05-74
[35] = target: T3, HER4 ECD peptide hairpin (β-hairpin of HER4), overlapping immobilized 15-mer peptides (human); test: CelluSpots array of overlapping 15-mer peptides of the HER family hairpins, antibody at 1 µg/mL, chemiluminescence (paragraph 389 to paragraph 391)
[36] = target: HER3 ECD-HRG complex (Heregulin-activated Her-3 ECD) (human) (UniProt P21860); test: SPR (Biacore) overlay, 100 nM Heregulin/Her-3 ECD complex on M-05-74
[37] = target: T3, HER4 ECD peptide hairpin (β-hairpin of HER4), overlapping immobilized 15-mer peptides (human); test: CelluSpots array of overlapping 15-mer peptides

Row | binding [1] | binding [2] | binding [3] | binding [5] | binding [6] | binding [7] | binding [8] | binding [9] | binding [10] | binding [12] | binding [13] | binding [15] | binding [20] | binding [21] | binding [22] | binding [23] | binding [26] | binding [27] | binding [30] | binding [31] | Binder | also measured
1 | binds | binds | binds | binds | binds | binds | binds | binds | binds | binds | binds | binds | binds | binds | binds | binds | binds | binds | binds | binds | anti-HER3 antibody M-08-11 (antibody, V domains shown, mouse monoclonal antibody from hybridoma, tested as hybridoma supernatant or as antibody; also called M-011) VH: QAYLQQSGAELMRPGASVRMSCQASGYTFTSYTIHWLKQTPRQGLEWIGAIYPRNGDFSYNQKFKDKASLTVDTSSSTAYMHLSSLTSEDSAVYFCARTINYGDWFAYWGQGTLVTVSA VL: DIQMIQSPASLFVSEGETVIITCRASENIYSNLAWYHQKKGKSPQVLVYAAIKLADGVPLRFSGSGSGTQFSLKINSLQSEDFGSYYCQHFWGPPYTFGSGTNLEIK | binding [4]: binds; binding [11]: binds; binding [14]: binds; binding [16]: binds; binding [17]: binds; binding [18]: binds; binding [19]: binds; binding [24]: binds; binding [25]: binds; binding [28]: binds; binding [29]: binds
2 |  |  |  |  |  |  |  |  |  |  |  | binds |  |  |  | binds | binds |  | binds | binds | anti-HER3/HER4 antibody M-05-74 (antibody, V domains shown, also called M-074; M-5-74) VH: QVQLQQSGAELAKPGASVKMSCKTSGYTLTDYWIHWVKQRPGQGLEWIGYINPYTGYTESNQKFKDKATLTADKSSNTAYIQLSSLTSEDSAVYYCARPYYYGDYWGQGTTLTVSS VL: QIVLTQSPAIMSASPGERVTITCSASSSVSYMHWFQQKPGTSPKLLIYSTSNLASGVPARFSGSGSGTSYSLTISRMEAEDAATYYCQQRSSYPFTFGSGTKLEIK | binding [32]: binds; binding [33]: binds; binding [34]: binds; binding [35]: binds; binding [36]: binds; binding [37]: binds
3 | binds | binds | binds | binds | binds | binds | binds | binds | binds | binds | binds | binds | binds | binds | binds |  |  | binds |  |  | anti-HER3 antibody M-46-01 (antibody, V domains shown, mouse hybridoma clone) VH: QIQLQQSGPQLVRPGASVKISCKASGYSFTSYWMHWVKQRPGRGLEWIGMIDPSDGVTRLNQKFKDKATLTVDNSSSTAYMQLSSPTSEDSAVHYCARVDVLYWYFDVWGAGTTVTVSS VL: DIVLTQSPASLAVSLGQRATISCRASKSISISGYSYMHWYQQKAGQPPKLLIYLTSNLESGVPARFSGSGSGTDFTLNIHPVEEEDAATYYCHHSRELPFTFGSGTKLEIK | 
4 |  |  | binds |  | binds |  | binds |  | binds | binds |  | binds |  | binds |  |  |  |  |  |  | anti-HER3 antibody M-43-01 (antibody, V domains shown, mouse hybridoma clone) VH: EVQLQQSGTVLARPGASVKMSCKASDYTFSNYWVHWVKQRPGQGLEWIGAIYPGNGDSTYYQKFKGKATLTAVTSTSTAYMDLSSLTNGDSAVYFCTRSGVGYNYYFDYWGQGTTLTVSS VL: DIQMTQSPASLSASVGETVTITCRASENIYSNLAWYQQKQGKSPQLLVYIATNLADGVPSRFSGSGSGTQFSLKINSLQPEDLGSYYCQHFYGTPFTFGTGTKLEIE | 
5 |  |  |  |  |  |  | binds |  | binds |  |  | binds |  |  |  |  |  |  |  |  | anti-HER3 antibody M-17-02 (antibody, V domains shown, mouse hybridoma clone) VH: EVQLQQSGTVLARPGASVKMSCKASGYSFTSYWIHWVKQRPGQGLEWIGAIYPGNSDTTYNQKFKGKAKLTAVTSASTAYMELSSLTNEDSAVYYCARTGVWTSYYFDYWGQGTTLTVSS VL: DIQMTQSPASLSASVGETVTITCRASENIYSNLAWYQQKQGKSPQLLVYAATNLADGVPSRFSGSGSGTQFSLRINSLQPEDFGSYYCQHFYGTPFTFGTGTKLEIK | 
